Changes are numbered by the printed parent chain. No constants are given. Whether binding was seen depends on the method and setting. Some results given as binding are weak or reduced against the parent protein; the word gives no strength.

The values that follow come from US20250368734A1.

This test concerns the target T1, mouse GPRC5D (mouse) (UniProt Q9JIL6).
T1 sequence (looked up): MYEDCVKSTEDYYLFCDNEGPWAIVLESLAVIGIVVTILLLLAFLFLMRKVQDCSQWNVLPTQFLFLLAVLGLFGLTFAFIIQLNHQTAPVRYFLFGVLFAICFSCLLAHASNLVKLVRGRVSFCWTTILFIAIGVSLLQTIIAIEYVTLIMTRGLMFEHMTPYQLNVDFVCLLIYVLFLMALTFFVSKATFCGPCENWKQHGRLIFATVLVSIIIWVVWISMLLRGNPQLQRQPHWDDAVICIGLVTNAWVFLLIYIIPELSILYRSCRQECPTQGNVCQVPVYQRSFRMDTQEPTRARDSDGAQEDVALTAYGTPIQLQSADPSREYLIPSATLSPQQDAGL
As to the kind of experiment: FACS, HEK293T-mGPRC5D cells. A general note: Flow cytometry measures light scatter and fluorescence of single cells or particles in a stream.

B1: ch12G12C2 (antibody, V domains shown)
VH: QIQLVQSGPELKMPGETVKISCKASGYTFTTYGLSWVKQAPGKGLKWMGWINTFSGVPIYADDFKGRFAFSLETSASTAYLQINNLKNEDTATYFCARWGIRQRGDYWGQGATLTVSS
VL: QIVLTQSPAIMSASPGEKVTMTCSASSSVSYLHWYQQKSGTSPKRWIYDTSKLASGVPVRFSGSGSETSYSLTISSMEAEDAATYYCQQWTSNPPTFGGGTKLEIK
With B1, the binding result was “binds”.

B2: ch26E2H6 (antibody, V domains shown)
VH: EVQLVESGGDLVKPGGSLKLSCAASGFTFSSYGMSWVRQTPDKRLEWVATISSGGSYTYYPDSVKGRFTISRDNAKNTLYLQMSSLKSEDTAMYYCARHATDYWGQGTTLTVSS
VL: B1 VL with L32M, V59A, E67G, T91S, P95L, G99A, I105L
On to B2, for which the binding result is “binds”.

B3: ch90G6H3 (antibody, V domains shown)
VH: QAYLQQSGAELVRSGASVKMSCKASGYTFTSYIMHWVKQTPGQGLEWIGYIYPGNGGTNYNQKFKDKATLSADTSSSTAYMQINSLTSEDSAVYFCARWGLRQGFAYWGQGTLVSVSA
VL: DIVMTQSQKFMSTSVGDRVSVTCKASQNVGGNVAWYQQKPGQSPKALIYSTSYRNSGVPDRFTGSGSGTDFTLTISNVQSEDLAEYFCQQYNSYPFTFGSGTKLEIR
Consider B3, for which the binding result is recorded as “binds”.

B4: ch15D6G2 (antibody, V domains shown)
VH: EVQLVESGGDLVKPGGYLRLSCAASGFTFSSHGMSWVRQTPDKRLEWVATISSGGRNTYYPDSVKGRFTISRDNAKNILYLQMSSLKSEDTAMFYCTRHSGDAMDYWGQGTSVTVSS
VL: DILLTQSPAILSVSPGERVSFSCRASQSIGTNIHWYQQRTNGSPRLLIKYASESISGIPSRFSGSGSGTDFTLSINSVESEDIADYYCQQSKSWPTFGGGTKLEIK
Regarding B4, the binding result was “binds”.

B5: ch98A3A8 (antibody, V domains shown)
VH: EVQLQQSGPELVKPGASVKMSCKASGYTFTYYVTHWVRQKPGQGLEWIGYINPYNDGTMFNEKFKGKATLTSDKSSSTAYMEFSSLTSEDSAVFYCARGGVRRYFDVWGAGTTVTVSS
VL: DIQMTQSPSSLSASLGERVSLTCRASQDIGSNLNWLQQKPDGTIKRLIYATSSLDSGVPKRFSGSRSGSDYSLTINSLESEDFVDYYCLQYASFPYTFGGGTKLEIK
Consider B5, for which the binding entry was “binds”.

B6: ch96C9E7 (antibody, V domains shown)
VH: EVQLQQSGPELVKPGASVKMSCKASGYTFTYYILHWVKQKPGQGLEWIGYFNPYNDGNKFNERFRGKATLTSDKSSSTAYMELNSLTSEDSAVYFCARGGVRRYFDVWGAGTTVTVSS
VL: B5 VL with K39E, Y49S, S52F, N76S, D85N
In the case of B6, the binding result is reported as “binds”.

B7: ch110B4H5 (antibody, V domains shown)
VH: EVQLQQSGPELVKPGASVKMSCKASGYTFTFYIMHWVKQKPGQGPEWIGYINPYNDGTKYNAKFKGKATLSSDRSSSTAYMELSSLTSEDSAVYYCARGGVRRYFDVWGAGTPVTVSS
VL: B5 VL with A25S, K39E, S52F, D70H, N76S, D85V, A92G
Consider B7, for which the binding result is given as “binds”.

B8: ch108C4C12 (antibody, V domains shown)
VH: B6 VH with Y31S, I33V, L34I, P41T, N58T, F60Y, R63E, R65K, S77N, E89D
VL: B5 VL with K39E, S52F, S53G, N76S, L89Q
For B8, the binding result was “binds”.

B9: ch87A3G8 (antibody, V domains shown)
VH: QVQLKESGPGLVAPSQSLSITCTVSGFSLSSYSVYWVRQPPGKGLEWLGVIWAGGSTNYNSALMSRLSINKDKSKSQVFLKMNSLQTDDSAIYYCAMRWLPRGLDFWGQGTSVTVSS
VL: DIVMTQSHKFMSTSVGDRVSITCKASQDVGTAVAWYQQKPGQSPKLLIYWASTRHTGVPDRFTGSGSGTDFTLTISNVQSEDLADYFCQQYSTYYTFGGGTKLEIK
As to B9, the binding result is on record as “binds”.

B10: ch101B3G3 (antibody, V domains shown)
VH: EVQLQQSGPELVKPGASMKISCKASGYSFTGYTMNWVKQSHGKNLEWIGLINPYNGGTRYNQKFKDKATLTVDKSSSTAYMELLSLTSEDSAVYYCARWLLRYAMDYWGQGTSVTVSS
VL: DIVMTQSQKFMSTSVGDRVSITCKASQNVGNAVAWYQQKPGHSPKLLISSASNRKNGVPDRFTGSGSGTDFTLTVSNMQSEDLADYFCQQYSDSSWTFGGGTKLEIK
As for B10, the binding result is reported as “binds”.

B11: ch89F11E3 (antibody, V domains shown)
VH: QVQLQQSGAELARPGASVKMSCKASGYTFTSSTIHWVKQRPGQGLAWIGYIVPSTGYTNYNQKFKDKATLTADKSSSTAYMQLTSLTSEDSAVYYCARSDGYPFGYSMAYWGQGTSVTVSS
VL: DIQMNQSPSSLSASLGDTITITCHASQNINVWLSWYHQKPGNIPKLLIYKASNLHTGVPSRFSGSGSGTGFTLTISRLQPEDIATYYCQQGQSYPFTFGSGTKLEIK
Take B11: the binding entry is recorded as “binds”.

B12: ch28H9C12 (antibody, V domains shown)
VH: EVQLVESGGGLVKPGGSLKLSCAASGFTFSDYGMHWVRQAPEKGLEWVAYISSGSSTIYYADTVKGRFTISRDNAKNTLFLQMTSLRSEDTAIYYCVRRPWYFDVWGTGTTVTVSS
VL: DVLMTQTPLSLPVSLGDQASISCRSSQSIVHSNGNTYLQWYLQKPGQSPKLLIYKVSNRFSGVPDRFSGSGSGTDFTLKISRLEAEDLGVYYCFQGSHVPFTFGSGTKLEIK
Turning to B12, the binding entry is listed as “binds”.

B13: ch20C4E1 (antibody, V domains shown)
VH: EVRLVESGGALVRPGGSLKLSCAASGFTFSDYGMHWVRQAPEKGLEWIAFISSVSFTIYYADTVKGRFTISRDNAKNTLFLQMTSLRSEDTALYYCTRLGPHWYFDVWGTGTTVTVSS
VL: DVVLTQTPLSLPVSLGDQASISCRSSQSLVYSNGNTYLHWFLQKPGQSPQLLIYKVSNRFSGVPDRFSGSGSGTDFTLKISRVEAEDLGVYFCSQSTPVPTFGGGTKLEIK
Regarding B13, the binding result is “binds”.
